{"source": "PubChem BioAssay AID686937 (Drosophila RNAi Screening Center, 2013)", "test": "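Genes whose loss weakens secretory pathway function in fly cells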 (primary screen)", "cells": "Drosophila S2 cells expressing secreted horseradish peroxidase", "reagents": "long dsRNA against Drosophila genes", "timing": "about 5.5 days (5 days dsRNA, then 12 h reporter induction)", "challenge": "reporter expression induced after 5 days of dsRNA, read 12 h later; inducer not stated", "detection": "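After 5 days of dsRNA and 12 h of reporter induction, medium peroxidase read by chemiluminescence and scored as per-plate z-score; higher values mean more reporter released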", "direction": "z-score: higher = more reporter secreted into medium", "note": "In all, the deposit lists about 23,000 reagents; this is a random part of those with a known target gene and a result. 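Reduced-secretion tags in replicate 1 do not always agree with the z-scores; no criterion for assigning the tags was given.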 The numbers tell different reagents against one gene apart. A plus sign joins genes that one reagent is predicted to hit. Not stated in the record: the amount of reagent."}
{"gene": "CG7488", "dsRNA no.": 1, "z-score, replicate 1": 0.37, "z-score, replicate 2": 0.08}
{"gene": "Cpr57A + Obp57d", "dsRNA no.": 1, "z-score, replicate 1": 0.16, "z-score, replicate 2": 0.04}
{"gene": "Cpr57A + Obp57d", "dsRNA no.": 2, "z-score, replicate 1": -1.05, "z-score, replicate 2": -0.41}
{"gene": "Cnep1r1 (CTD nuclear envelope phosphatase 1 regulatory subunit 1)", "dsRNA no.": 1, "z-score, replicate 1": 0.39, "z-score, replicate 2": 0.31}
{"gene": "fdl (fused lobes)", "dsRNA no.": 1, "z-score, replicate 1": 0.33, "z-score, replicate 2": 0.34}
{"gene": "Etl1", "dsRNA no.": 1, "z-score, replicate 1": 0.39, "z-score, replicate 2": 0.34}
{"gene": "Phyhd1 (Phytanoyl-CoA dioxygenase domain containing 1)", "dsRNA no.": 1, "z-score, replicate 1": 0.52, "z-score, replicate 2": 0.71}
{"gene": "brp (bruchpilot)", "dsRNA no.": 1, "z-score, replicate 1": 0.27, "z-score, replicate 2": 0.22}
{"gene": "brp (bruchpilot)", "dsRNA no.": 2, "z-score, replicate 1": 0.06, "z-score, replicate 2": 0.32}
{"gene": "brp (bruchpilot)", "dsRNA no.": 3, "z-score, replicate 1": 0.37, "z-score, replicate 2": 0.31}
{"gene": "brp (bruchpilot)", "dsRNA no.": 4, "z-score, replicate 1": 0.13, "z-score, replicate 2": 0.51}
{"gene": "Spn28F (Serpin 28F)", "dsRNA no.": 1, "z-score, replicate 1": 0.39, "z-score, replicate 2": 0.4}
{"gene": "norpA (no receptor potential A)", "dsRNA no.": 1, "z-score, replicate 1": 0.02, "z-score, replicate 2": -0.04}
{"gene": "CG11630", "dsRNA no.": 1, "z-score, replicate 1": 0.02, "z-score, replicate 2": 0.21}
{"gene": "ppk14 (pickpocket 14)", "dsRNA no.": 1, "z-score, replicate 1": 0.11, "z-score, replicate 2": -0.02}
{"gene": "Mlp60A (Muscle LIM protein at 60A)", "dsRNA no.": 1, "z-score, replicate 1": 0.49, "z-score, replicate 2": -0.3}
{"gene": "Mlp60A (Muscle LIM protein at 60A)", "dsRNA no.": 2, "z-score, replicate 1": -0.12, "z-score, replicate 2": 0.96}
{"gene": "Mlp60A (Muscle LIM protein at 60A)", "dsRNA no.": 3, "z-score, replicate 1": 0.15, "z-score, replicate 2": -0.54}
